# Results taken from the supplement of paper PMC4604168 (melanoma cell lines).
# This is one part of the list. Many values rest on one well or one pass, so single values are uncertain.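 The apoptosis fraction was the count of cleaved-PARP antibody-stained nuclei relative to all DNA-stained nuclei, imaged in 1,536-well plates. Screening doses were set so most cells survived, and baseline and induced cleaved-PARP levels vary greatly across cell lines.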
# Tests used:
# Experiment in all cases: cleaved PARP positive nuclei fraction relative to DMSO control; melanoma cells; higher = more apoptosis
# Conditions in all cases: library dose: low library concentration; 72 h
# WM115 = test system: WM115
# WM1716 = test system: WM1716
# WM1745 = test system: WM1745
# WM3526 = test system: WM3526
# WM3619 = test system: WM3619
# WM451Lu = test system: WM451Lu
Compound,cleaved PARP positive nuclei fraction (WM115),cleaved PARP positive nuclei fraction (WM1716),cleaved PARP positive nuclei fraction (WM1745),cleaved PARP positive nuclei fraction (WM3526),cleaved PARP positive nuclei fraction (WM3619),cleaved PARP positive nuclei fraction (WM451Lu)
"C[As](C)SC[C@H](NC(=O)CC[C@H](N)C(=O)O)C(=O)NCC(=O)O [Darinaparsin] + COC(=O)c1sccc1S(=O)(=O)Nc1ccc(Nc2ccccc2)cc1OC [GSK0660] (first compound 0.4 µM, partner dose 1 µM)",206%,82%,88.5%,66.3%,75.5%,63.6%
"N.N.[Cl][Pt][Cl] [cisplatin] + CCN(CC)CCCCNc1ncc2cc(-c3cc(OC)cc(OC)c3)c(NC(=O)NC(C)(C)C)nc2n1 [PD173074] (first compound 1.6 µM, partner dose 0.1 µM)",48%,73.6%,97.2%,51.2%,91.8%,25.8%
"O=C1NC(=O)/C(=C/c2ccc(-c3ccc(F)cc3O)o2)S1 + O=C(Oc1ccc([N+](=O)[O-])cc1)N1CCC(C(O)(c2ccc3c(c2)OCO3)c2ccc3c(c2)OCO3)CC1 [JZL184] (first compound 1 µM, partner dose 1 µM)",190%,137%,97.4%,70.6%,70.2%,109%
"Cc1ccc(Nc2nccc(N(C)c3ccc4c(C)n(C)nc4c3)n2)cc1S(N)(=O)=O [Pazopanib] + N.N.[Cl][Pt][Cl] [cisplatin] (first compound 0.4 µM, partner dose 1.6 µM)",91.6%,73.7%,107%,46.4%,99.6%,53.8%
"CO[C@@H]1[C@H](N(C)C(=O)c2ccccc2)C[C@H]2O[C@]1(C)n1c3ccccc3c3c4c(c5c6ccccc6n2c5c31)C(=O)NC4 [Midostaurin] + O=C(Oc1ccc([N+](=O)[O-])cc1)N1CCC(C(O)(c2ccc3c(c2)OCO3)c2ccc3c(c2)OCO3)CC1 [JZL184] (first compound 0.08 µM, partner dose 1 µM)",90.5%,79.1%,95.7%,60.5%,106%,128%
"CCCCCCCCCCCCCCCCCCOP(=O)([O-])OC1CC[N+](C)(C)CC1 [Perifosine] + Cn1cc(C2=C(c3cn(C4CCN(Cc5ccccn5)CC4)c4ccccc34)C(=O)NC2=O)c2ccccc21 [Enzastaurin] (first compound 0.4 µM, partner dose 0.8 µM)",87%,74.8%,84.8%,38.6%,96.2%,109%
"Cn1cnc2c(F)c(Nc3ccc(Br)cc3Cl)c(C(=O)NOCCO)cc21 [selumetinib] + N.N.[Cl][Pt][Cl] [cisplatin] (first compound 0.015 µM, partner dose 1.6 µM)",136%,94.1%,106%,91.8%,104%,50.1%
"N.N.[Cl][Pt][Cl] [cisplatin] + CN1CCN(c2ccc3nc(-c4c(N)c5c(F)cccc5[nH]c4=O)[nH]c3c2)CC1 [Dovitinib] (first compound 1.6 µM, partner dose 0.1 µM)",173%,34.9%,101%,72.6%,91.3%,152%
"CS(=O)(=O)c1ccc(C(=O)Nc2ccc(Cl)c(-c3ccccn3)c2)c(Cl)c1 [vismodegib] + N.N.[Cl][Pt][Cl] [cisplatin] (first compound 1 µM, partner dose 1.6 µM)",79.4%,98.2%,95.2%,46.6%,185%,72%
"NCC(=O)Nc1ccc(-n2nc(C(F)(F)F)cc2-c2ccc3c(ccc4ccccc43)c2)cc1 + O=C(Oc1ccc([N+](=O)[O-])cc1)N1CCC(C(O)(c2ccc3c(c2)OCO3)c2ccc3c(c2)OCO3)CC1 [JZL184] (first compound 1 µM, partner dose 1 µM)",88.2%,92.3%,96%,97.6%,84.7%,196%
"C[C@@H](Oc1cc(-c2cnn(C3CCNCC3)c2)cnc1N)c1c(Cl)ccc(F)c1Cl [Crizotinib] + C/C(O)=C(\C#N)C(=O)Nc1cc(Br)ccc1Br [LFM-A13] (first compound 0.2 µM, partner dose 2 µM)",93.3%,69.3%,85.6%,72.9%,83.6%,165%
"Nc1ncn([C@H]2C[C@H](O)[C@@H](CO)O2)c(=O)n1 [decitabine] + C/C(O)=C(\C#N)C(=O)Nc1cc(Br)ccc1Br [LFM-A13] (first compound 0.1 µM, partner dose 2 µM)",373%,62.1%,89.2%,324%,106%,76.9%
"Cc1cc(SCc2sc(-c3ccc(C(F)(F)F)c(F)c3)nc2C)ccc1OCC(=O)O + COc1cc2ncnc(Nc3ccc(Oc4ccccc4)cc3)c2cc1OC [SrcI1] (first compound 2 µM, partner dose 2 µM)",46.3%,40%,116%,49.4%,89.6%,56%
"NC(=O)c1ccc(N(C(N)=O)c2c(F)cccc2F)nc1-c1ccc(F)cc1F + C[C@]12O[C@H](C[C@]1(O)CO)n1c3ccccc3c3c4c(c5c6ccccc6n2c5c31)CNC4=O [Lestaurtinib] (first compound 0.4 µM, partner dose 0.004 µM)",148%,20.9%,93.5%,415%,104%,93.4%
"CCCCCCCCCCCCCCCCCCOP(=O)([O-])OC1CC[N+](C)(C)CC1 [Perifosine] + C[As](C)SC[C@H](NC(=O)CC[C@H](N)C(=O)O)C(=O)NCC(=O)O [Darinaparsin] (first compound 0.4 µM, partner dose 0.4 µM)",72.2%,128%,129%,28.7%,89.8%,74.8%
"O=C(Oc1ccc([N+](=O)[O-])cc1)N1CCC(C(O)(c2ccc3c(c2)OCO3)c2ccc3c(c2)OCO3)CC1 + CC(C)CCN1c2nc(Nc3cc(F)c(O)c(F)c3)ncc2N(C)C(=O)C1C [BID1870] (first compound 1 µM, partner dose 0.2 µM)",70.7%,98.1%,94.6%,142%,73%,113%
"CCCS(=O)(=O)Nc1ccc(F)c(C(=O)c2c[nH]c3ncc(Cl)cc23)c1F + C/C(O)=C(\C#N)C(=O)Nc1cc(Br)ccc1Br [LFM-A13] (first compound 0.08 µM, partner dose 2 µM)",97.4%,148%,177%,169%,98.4%,69.5%
"NC(=O)c1ccc(N(C(N)=O)c2c(F)cccc2F)nc1-c1ccc(F)cc1F + C/C(O)=C(\C#N)C(=O)Nc1cc(Br)ccc1Br [LFM-A13] (first compound 0.4 µM, partner dose 2 µM)",72.5%,52.5%,90.4%,84.4%,101%,73.4%
"C[C@]12O[C@H](C[C@]1(O)CO)n1c3ccccc3c3c4c(c5c6ccccc6n2c5c31)CNC4=O [Lestaurtinib] + C[As](C)SC[C@H](NC(=O)CC[C@H](N)C(=O)O)C(=O)NCC(=O)O [Darinaparsin] (first compound 0.004 µM, partner dose 0.4 µM)",108%,60.6%,94.1%,83%,113%,85.3%
"CC[C@]1(O)C[C@H]2CN(CCc3c([nH]c4ccccc34)[C@@](C(=O)OC)(c3cc4c(cc3OC)N(C=O)[C@H]3[C@@](O)(C(=O)OC)[C@H](OC(C)=O)[C@]5(CC)C=CCN6CC[C@]43[C@@H]65)C2)C1 [vincristine] + O=C(Oc1ccc([N+](=O)[O-])cc1)N1CCC(C(O)(c2ccc3c(c2)OCO3)c2ccc3c(c2)OCO3)CC1 [JZL184] (first compound 0.0001 µM, partner dose 1 µM)",2300%,189%,104%,120%,138%,215%
"C[C@]12O[C@H](C[C@]1(O)CO)n1c3ccccc3c3c4c(c5c6ccccc6n2c5c31)CNC4=O [Lestaurtinib] + OCCn1cc(-c2cnc3nnn(Cc4ccc5ncccc5c4)c3n2)cn1 [PF04217903] (first compound 0.004 µM, partner dose 1 µM)",43.3%,68%,103%,180%,94.5%,364%
"Cn1cc(C2=C(c3cn(C4CCN(Cc5ccccn5)CC4)c4ccccc34)C(=O)NC2=O)c2ccccc21 [Enzastaurin] + NCC(=O)Nc1ccc(-n2nc(C(F)(F)F)cc2-c2ccc3c(ccc4ccccc43)c2)cc1 [OSU03012] (first compound 0.8 µM, partner dose 1 µM)",153%,47%,103%,88.3%,89%,58.5%
"CN(NC(=O)CC(=O)NN(C)C(=S)c1ccccc1)C(=S)c1ccccc1 + C/C(O)=C(\C#N)C(=O)Nc1cc(Br)ccc1Br [LFM-A13] (first compound 0.006 µM, partner dose 2 µM)",244%,180%,998%,66%,343%,93.1%
"COC(=O)c1sccc1S(=O)(=O)Nc1ccc(Nc2ccccc2)cc1OC + O=C(Oc1ccc([N+](=O)[O-])cc1)N1CCC(C(O)(c2ccc3c(c2)OCO3)c2ccc3c(c2)OCO3)CC1 [JZL184] (first compound 1 µM, partner dose 1 µM)",140%,72.2%,97.6%,79.1%,82.8%,273%
"Cn1cc(C2=C(c3cn(C4CCN(Cc5ccccn5)CC4)c4ccccc34)C(=O)NC2=O)c2ccccc21 [Enzastaurin] + C=CCn1c(=O)c2cnc(Nc3ccc(N4CCN(C)CC4)cc3)nc2n1-c1cccc(C(C)(C)O)n1 [MK1775] (first compound 0.8 µM, partner dose 0.02 µM)",46.7%,97.8%,183%,63.3%,197%,94.5%

# As a working copy, some entries already given.
Compound,cleaved PARP positive nuclei fraction (WM115),cleaved PARP positive nuclei fraction (WM1716),cleaved PARP positive nuclei fraction (WM1745),cleaved PARP positive nuclei fraction (WM3526),cleaved PARP positive nuclei fraction (WM3619),cleaved PARP positive nuclei fraction (WM451Lu)
"C[C@]12O[C@H](C[C@]1(O)CO)n1c3ccccc3c3c4c(c5c6ccccc6n2c5c31)CNC4=O [Lestaurtinib] + OCCn1cc(-c2cnc3nnn(Cc4ccc5ncccc5c4)c3n2)cn1 [PF04217903] (first compound 0.004 µM, partner dose 1 µM)",43.3%,68%,103%,180%,94.5%,364%
"Cn1cc(C2=C(c3cn(C4CCN(Cc5ccccn5)CC4)c4ccccc34)C(=O)NC2=O)c2ccccc21 [Enzastaurin] + NCC(=O)Nc1ccc(-n2nc(C(F)(F)F)cc2-c2ccc3c(ccc4ccccc43)c2)cc1 [OSU03012] (first compound 0.8 µM, partner dose 1 µM)",153%,47%,103%,88.3%,89%,58.5%
